From the supplement of paper PMC10735217
Structures can show the parent of a compound that is named as a salt. Some of the results follow. This data set is noisy: repeats of one test often differ as much as different tests do.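 The human kidney-derived cells carry a stably integrated construct of eight TEAD-binding elements driving luciferase, read by luminescence in a drug-repurposing library screen. A compound counts as a hit when its signal is more than five robust Z scores above the plate mean.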

Tested on: HEK293A TEAD-LUC reporter
Test: TEAD-luciferase reporter activity (YAP activation), robust Z score vs plate; higher = stronger YAP/TEAD activation
Conditions: 24 h

Row | SMILES | TEAD-luciferase reporter activity (compound concentration: 200 nM) | TEAD-luciferase reporter activity (compound concentration: 10 uM) | TEAD-luciferase reporter activity (compound concentration: 2 uM)
1 | O=C(c1ccc(F)cc1)N1CCC(N2CCCNC2=O)CC1 | inactive: 2.23 | inactive: 1.84 | –
2 | CC(C)(Oc1ccc(Cl)cc1)C(=O)OCc1cccnc1 | inactive: -1.92 | inactive: -1.49 | inactive: -0.788
3 | CC1(C)C(=O)N(C(=O)NCC2CCN(CC3(O)CCOCC3)CC2)c2cc(F)ccc21 | inactive: -1.14 | inactive: -0.0833 | active: 6.59
4 | CCCC(=O)OC[C@H]1O[C@H](O[C@H]2O[C@H](COC(=O)CCC)[C@@H](O)[C@H](O)[C@H]2O)[C@H](O)[C@@H](O)[C@@H]1O | inactive: -0.961 | inactive: -1.26 | inactive: -1.64
5 | CCOC/C=C/c1ccc(-c2nc(-c3ccc(NC(C)C)cc3)c(-c3ccc(NC(C)C)cc3)[nH]2)cc1 | inactive: -1.55 | inactive: -1.32 | inactive: 0.0943
6 | O=C(Nc1ccc(Oc2ncccn2)cc1C(=O)O)c1ccc(Cl)cc1Cl | inactive: -0.296 | inactive: -0.556 | inactive: -0.434
7 | COC(=O)Nc1nc2ccc(C(=O)c3ccc4nc(NC(=O)OC)[nH]c4c3)cc2[nH]1 | inactive: -0.844 | inactive: -0.115 | inactive: 0.0374
8 | COc1cccc(-c2ccc(CN3CCCC(NC(=O)c4ccccc4)C3)cc2)c1 (configuration not stated) | inactive: 1.15 | inactive: 0.0421 | –
9 | C[C@@H](NC(=O)/C=C/c1ccc(C(F)(F)F)cc1)c1cc(F)c(NS(C)(=O)=O)c(F)c1 | inactive: -0.876 | inactive: 2.08 | inactive: -0.729
10 | OC[C@H]1O[C@@H](n2cnc3c(N[C@@H]4CCOC4)ncnc32)[C@H](O)[C@@H]1O [Tecadenoson] | inactive: 0.498 | inactive: -0.198 | –
11 | O=c1[nH]c(=O)n(COCCO)cc1Cc1ccccc1 | inactive: -0.756 | inactive: -0.56 | inactive: -0.317
12 | O=C1CCC(C(=O)N2CSCC2C(=O)O)N1 (configuration not stated) [pidotimod] | inactive: -0.673 | inactive: 0.219 | inactive: -0.486
13 | CC(C)(C(O)(Cn1cncn1)c1ccc(C(F)(F)F)cc1)S(C)(=O)=O (configuration not stated) | inactive: 0.0686 | inactive: -0.803 | inactive: -1.02
14 | CCCCc1ccc(Nc2ncccc2C(=O)O)cc1 | inactive: 0.801 | inactive: 0.778 | inactive: -0.859
15 | c1csc(-c2ccc3c(c2)OCO3)n1 | inactive: -0.191 | inactive: 0.804 | inactive: -1.58
16 | O=C(O)C1CSC(c2ccccc2O)=N1 (configuration not stated) | inactive: -2.31 | inactive: -1.4 | inactive: 0.528
17 | C[N+](C)(C)CCCCOC(=O)C12CC3CC(CC(C3)C1)C2 | inactive: 4.58 | inactive: -0.157 | inactive: -0.121
18 | CC1CCCCC1NC(=O)c1ccc2nccn2c1 (configuration not stated) | active: 5.53 | inactive: 1.09 | –
19 | CC1(C)CC(=O)c2c(C(F)(F)F)nn(-c3ccc(C(N)=O)c(N[C@H]4CC[C@H](O)CC4)c3)c2C1 | inactive: 1.27 | inactive: -3.74 | inactive: -2
20 | Cc1cc(C)nc(O[C@H](C(=O)O)C(C)(c2ccccc2)c2ccccc2)n1 | inactive: -0.656 | inactive: 1.33 | inactive: -1.25

From no. 9 as far as 16, copied from above:
Row | SMILES | TEAD-luciferase reporter activity (compound concentration: 200 nM) | TEAD-luciferase reporter activity (compound concentration: 10 uM) | TEAD-luciferase reporter activity (compound concentration: 2 uM)
9 | C[C@@H](NC(=O)/C=C/c1ccc(C(F)(F)F)cc1)c1cc(F)c(NS(C)(=O)=O)c(F)c1 | inactive: -0.876 | inactive: 2.08 | inactive: -0.729
10 | OC[C@H]1O[C@@H](n2cnc3c(N[C@@H]4CCOC4)ncnc32)[C@H](O)[C@@H]1O [Tecadenoson] | inactive: 0.498 | inactive: -0.198 | –
11 | O=c1[nH]c(=O)n(COCCO)cc1Cc1ccccc1 | inactive: -0.756 | inactive: -0.56 | inactive: -0.317
12 | O=C1CCC(C(=O)N2CSCC2C(=O)O)N1 (configuration not stated) [pidotimod] | inactive: -0.673 | inactive: 0.219 | inactive: -0.486
13 | CC(C)(C(O)(Cn1cncn1)c1ccc(C(F)(F)F)cc1)S(C)(=O)=O (configuration not stated) | inactive: 0.0686 | inactive: -0.803 | inactive: -1.02
14 | CCCCc1ccc(Nc2ncccc2C(=O)O)cc1 | inactive: 0.801 | inactive: 0.778 | inactive: -0.859
15 | c1csc(-c2ccc3c(c2)OCO3)n1 | inactive: -0.191 | inactive: 0.804 | inactive: -1.58
16 | O=C(O)C1CSC(c2ccccc2O)=N1 (configuration not stated) | inactive: -2.31 | inactive: -1.4 | inactive: 0.528

(cont.)

Row | SMILES | TEAD-luciferase reporter activity (compound concentration: 200 nM) | TEAD-luciferase reporter activity (compound concentration: 10 uM) | TEAD-luciferase reporter activity (compound concentration: 2 uM)
21 | NCCCCN | inactive: -0.62 | inactive: -0.515 | inactive: 1.48
22 | Fc1ccc(-n2cc(CCCCN3CCC4(CC3)OCc3ccccc34)c3ccccc32)cc1 [Siramesine] | inactive: 0.437 | active: 12.3 | inactive: 0.184
23 | O=C1CCC(c2ccc(Nc3ccncc3)cc2)=NN1 | inactive: -0.0463 | inactive: -0.00111 | inactive: -0.909
24 | O=C1C=Cc2cc(Br)ccc2C1=O [Bonaphthone] | inactive: 1.04 | inactive: -0.0432 | inactive: -0.189
25 | O=C1N=C2SCCN2C(=O)C1Cc1ccc(Cl)cc1 (configuration not stated) [nuclomedone] | inactive: -0.603 | inactive: 0.841 | inactive: -2.17
26 | OC(CCN1CCCCC1)(c1ccccc1)C1CCCC1 (configuration not stated) | inactive: -1.7 | inactive: 1.07 | inactive: -1.01
27 | COc1nccnc1NS(=O)(=O)c1cccc(Cl)c1Cl | inactive: -2.32 | inactive: -1.45 | inactive: 0.025
28 | Cc1ncccc1C(=O)N1CCN(S(=O)(=O)c2ccc(C(F)(F)F)cc2)C[C@@H]1C | inactive: -0.257 | inactive: -0.148 | inactive: -0.3
29 | Cn1cc(S(C)=O)c(=O)c2ccc(F)cc21 (configuration not stated) [flosequinan] | inactive: 2.81 | inactive: -0.751 | inactive: 2.43
30 | COc1ccc(CCC(C)NCC(O)c2ccc(O)c(S(C)=O)c2)cc1 (configuration not stated) [Sulfinalol] | inactive: -0.981 | inactive: -0.14 | inactive: -1.5
31 | O=C(O)c1ccc(/C=C/S(=O)(=O)Cc2ccc(Cl)cc2)cc1 [Recilisib] | inactive: 1.41 | inactive: -0.227 | –
32 | O=C(O)c1ccc(/C=C/S(=O)(=O)Cc2ccc(Cl)cc2)cc1 | – | – | inactive: 0.141
33 | Oc1ccc2ccc(OCCCCN3CCN(c4cccc5sccc45)CC3)cc2n1 [brexpiprazole] | inactive: 3.76 | inactive: 0.865 | inactive: -0.415
34 | COc1ccc2cc(C(C)C3c4cc(OC)c(OC)cc4CCN3C(=O)CN3CCCCC3)ccc2c1 (configuration not stated) | inactive: 1.65 | inactive: -0.869 | inactive: 0.237
35 | OCc1cc(Cl)c(OCc2ccc(Cl)cc2)c(Cl)c1 | inactive: -0.991 | inactive: 2.18 | inactive: 1.05
36 | CCCCCC[C@@H](CCC)C(=O)O [Arundic acid] | inactive: -0.85 | inactive: 1.19 | inactive: -1.39
37 | O=C[O-] | inactive: -0.484 | inactive: -0.273 | inactive: -0.18
38 | NC1CCN(c2c(F)cc3c(=O)c(C(=O)O)cn(C4CC4)c3c2Cl)C1 (configuration not stated) [Clinafloxacin Hydrochloride] | inactive: 1.64 | inactive: 0.568 | –
39 | NC1CCN(c2c(F)cc3c(=O)c(C(=O)O)cn(C4CC4)c3c2Cl)C1 (configuration not stated) [Clinafloxacin] | – | – | inactive: -0.735
